Laboratory results: article PMC11312940
Results are given in words; binding and its absence hold for the method and conditions named. In cells and extracts the contact can be indirect. These calls come from enrichment with a bait or labelling near it, and not all partners need be listed. One block for each binder: values may come before it.

The chains behind the UniProt entries cited, without tags or fusion partners.
UniProt Q9GZV5: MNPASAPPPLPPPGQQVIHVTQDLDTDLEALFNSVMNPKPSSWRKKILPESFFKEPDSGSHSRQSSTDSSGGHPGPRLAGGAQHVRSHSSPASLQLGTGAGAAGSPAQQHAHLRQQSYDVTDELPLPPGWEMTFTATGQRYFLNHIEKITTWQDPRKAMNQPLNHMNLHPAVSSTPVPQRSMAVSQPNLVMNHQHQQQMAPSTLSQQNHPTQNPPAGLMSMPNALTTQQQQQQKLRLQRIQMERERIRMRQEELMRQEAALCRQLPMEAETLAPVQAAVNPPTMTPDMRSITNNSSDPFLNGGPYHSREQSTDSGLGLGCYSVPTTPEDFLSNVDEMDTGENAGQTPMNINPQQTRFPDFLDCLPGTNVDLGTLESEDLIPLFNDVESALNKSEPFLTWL
UniProt P46937: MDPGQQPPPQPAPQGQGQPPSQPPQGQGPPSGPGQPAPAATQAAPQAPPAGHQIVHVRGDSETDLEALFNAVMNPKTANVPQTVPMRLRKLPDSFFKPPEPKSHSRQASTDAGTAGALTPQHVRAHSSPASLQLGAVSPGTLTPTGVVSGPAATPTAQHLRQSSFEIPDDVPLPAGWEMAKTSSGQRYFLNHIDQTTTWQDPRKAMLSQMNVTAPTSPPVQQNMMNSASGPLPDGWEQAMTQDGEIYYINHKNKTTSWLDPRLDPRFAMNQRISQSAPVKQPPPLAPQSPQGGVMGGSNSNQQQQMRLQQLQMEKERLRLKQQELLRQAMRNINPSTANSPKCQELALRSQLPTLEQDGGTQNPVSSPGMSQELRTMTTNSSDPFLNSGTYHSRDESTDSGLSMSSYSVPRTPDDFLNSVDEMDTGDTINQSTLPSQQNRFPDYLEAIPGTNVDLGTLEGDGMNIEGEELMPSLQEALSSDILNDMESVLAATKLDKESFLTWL

Experiments:
Experiment in all cases: proximity labelling; BioID: BirA-Flag-YAP or -TAZ induced with doxycycline 24 h in stable HLF cells, 50 µM biotin 24 h; streptavidin magnetic beads; LC-MS/MS of four replicates; hits against the BirA-only control (fold change ≥ 2; false discovery rate ≤ 0.05)
[1] = target: BirA-tagged TAZ (WW-domain containing transcription regulator 1, WWTR1), N-terminal fusion with the biotin ligase BirA and a Flag-tag (UniProt Q9GZV5)
[2] = target: BirA-tagged YAP (yes-associated protein), N-terminal fusion with the biotin ligase BirA and a Flag-tag (UniProt P46937)
[3] = target: BirA-tagged TAZ (WW-domain containing transcription regulator 1, WWTR1), N-terminal fusion with the biotin ligase BirA and a Flag-tag, Q9GZV5; conditions: remark: other sources report otherwise

binding [1]: binds
binding [2]: binds
B1: p130Cas (CRK-associated substrate)/BCAR1 (protein, UniProt P56945 1-870)
chain: MNHLNVLAKALYDNVAESPDELSFRKGDIMTVLEQDTQGLDGWWLCSLHGRQGIVPGNRLKILVGMYDKKPAGPGPGPPATPAQPQPGLHAPAPPASQYTPMLPNTYQPQPDSVYLVPTPSKAQQGLYQVPGPSPQFQSPPAKQTSTFSKQTPHHPFPSPATDLYQVPPGPGGPAQDIYQVPPSAGMGHDIYQVPPSMDTRSWEGTKPPAKVVVPTRVGQGYVYEAAQPEQDEYDIPRHLLAPGPQDIYDVPPVRGLLPSQYGQEVYDTPPMAVKGPNGRDPLLEVYDVPPSVEKGLPPSNHHAVYDVPPSVSKDVPDGPLLREETYDVPPAFAKAKPFDPARTPLVLAAPPPDSPPAEDVYDVPPPAPDLYDVPPGLRRPGPGTLYDVPRERVLPPEVADGGVVDSGVYAVPPPAEREAPAEGKRLSASSTGSTRSSQSASSLEVAGPGREPLELEVAVEALARLQQGVSATVAHLLDLAGSAGATGSWRSPSEPQEPLVQDLQAAVAAVQSAVHELLEFARSAVGNAAHTSDRALHAKLSRQLQKMEDVHQTLVAHGQALDAGRGGSGATLEDLDRLVACSRAVPEDAKQLASFLHGNASLLFRRTKATAPGPEGGGTLHPNPTDKTSSIQSRPLPSPPKFTSQDSPDGQYENSEGGWMEDYDYVHLQGKEEFEKTQKELLEKGSITRQGKSQLELQQLKQFERLEQEVSRPIDHDLANWTPAQPLAPGRTGGLGPSDRQLLLFYLEQCEANLTTLTNAVDAFFTAVATNQPPKIFVAHSKFVILSAHKLVFIGDTLSRQAKAADVRSQVTHYSNLLCDLLRGIVATTKAAALQYPSPSAAQDMVERVKELGHSTQQFRRVLGQLAAA

binding [1]: binds
binding [2]: binds
B2: angiomotin-like 1 (AMOTL1) (protein, UniProt Q8IY63 1-956)
chain: MWRAKLRRGTCEPAVKGSPSACYSPSSPVQVLEDSTYFSPDFQLYSGRHETSALTVEATSSIREKVVEDPLCNFHSPNFLRISEVEMRGSEDAAAGTVLQRLIQEQLRYGTPTENMNLLAIQHQATGSAGPAHPTNNFSSTENLTQEDPQMVYQSARQEPQGQEHQVDNTVMEKQVRSTQPQQNNEELPTYEEAKAQSQFFRGQQQQQQQQGAVGHGYYMAGGTSQKSRTEGRPTVNRANSGQAHKDEALKELKQGHVRSLSERIMQLSLERNGAKQHLPGSGNGKGFKVGGGPSPAQPAGKVLDPRGPPPEYPFKTKQMMSPVSKTQEHGLFYGDQHPGMLHEMVKPYPAPQPVRTDVAVLRYQPPPEYGVTSRPCQLPFPSTMQQHSPMSSQTSSASGPLHSVSLPLPLPMALGAPQPPPAASPSQQLGPDAFAIVERAQQMVEILTEENRVLHQELQGYYDNADKLHKFEKELQRISEAYESLVKSTTKRESLDKAMRNKLEGEIRRLHDFNRDLRDRLETANRQLSSREYEGHEDKAAEGHYASQNKEFLKEKEKLEMELAAVRTASEDHRRHIEILDQALSNAQARVIKLEEELREKQAYVEKVEKLQQALTQLQSACEKREQMERRLRTWLERELDALRTQQKHGNGQPANMPEYNAPALLELVREKEERILALEADMTKWEQKYLEESTIRHFAMNAAATAAAERDTTIINHSRNGSYGESSLEAHIWQEEEEVVQANRRCQDMEYTIKNLHAKIIEKDAMIKVLQQRSRKDAGKTDSSSLRPARSVPSIAAATGTHSRQTSLTSSQLAEEKKEEKTWKGSIGLLLGKEHHEHASAPLLPPPPTSALSSIASTTAASSAHAKTGSKDSSTQTDKSAELFWPSMASLPSRGRLSTTPAHSPVLKHPAAKGTAEKLENSPGHGKSPDHRGRVSSLLHKPEFPDGEMMEVLI

binding [3]: binds
B3: LATS1 kinase (large tumor suppressor kinase 1), O95835 1-1130 (protein)
chain: MKRSEKPEGYRQMRPKTFPASNYTVSSRQMLQEIRESLRNLSKPSDAAKAEHNMSKMSTEDPRQVRNPPKFGTHHKALQEIRNSLLPFANETNSSRSTSEVNPQMLQDLQAAGFDEDMVIQALQKTNNRSIEAAIEFISKMSYQDPRREQMAAAAARPINASMKPGNVQQSVNRKQSWKGSKESLVPQRHGPPLGESVAYHSESPNSQTDVGRPLSGSGISAFVQAHPSNGQRVNPPPPPQVRSVTPPPPPRGQTPPPRGTTPPPPSWEPNSQTKRYSGNMEYVISRISPVPPGAWQEGYPPPPLNTSPMNPPNQGQRGISSVPVGRQPIIMQSSSKFNFPSGRPGMQNGTGQTDFMIHQNVVPAGTVNRQPPPPYPLTAANGQSPSALQTGGSAAPSSYTNGSIPQSMMVPNRNSHNMELYNISVPGLQTNWPQSSSAPAQSSPSSGHEIPTWQPNIPVRSNSFNNPLGNRASHSANSQPSATTVTAITPAPIQQPVKSMRVLKPELQTALAPTHPSWIPQPIQTVQPSPFPEGTASNVTVMPPVAEAPNYQGPPPPYPKHLLHQNPSVPPYESISKPSKEDQPSLPKEDESEKSYENVDSGDKEKKQITTSPITVRKNKKDEERRESRIQSYSPQAFKFFMEQHVENVLKSHQQRLHRKKQLENEMMRVGLSQDAQDQMRKMLCQKESNYIRLKRAKMDKSMFVKIKTLGIGAFGEVCLARKVDTKALYATKTLRKKDVLLRNQVAHVKAERDILAEADNEWVVRLYYSFQDKDNLYFVMDYIPGGDMMSLLIRMGIFPESLARFYIAELTCAVESVHKMGFIHRDIKPDNILIDRDGHIKLTDFGLCTGFRWTHDSKYYQSGDHPRQDSMDFSNEWGDPSSCRCGDRLKPLERRAARQHQRCLAHSLVGTPNYIAPEVLLRTGYTQLCDWWSVGVILFEMLVGQPPFLAQTPLETQMKVINWQTSLHIPPQAKLSPEASDLIIKLCRGPEDRLGKNGADEIKAHPFFKTIDFSSDLRQQSASYIPKITHPTDTSNFDPVDPDKLWSDDNEEENVNDTLNGWYKNGKHPEHAFYEFTFRRFFDDNGYPYNYPKPIEYEYINSQGSEQQSDEDDQNTGSEIKNRDLVYV
